The other results are listed elsewhere or left out. Further columns of the screen follow, without active or inactive calls. Most of these compounds were active or inconclusive in the main read-out, so they are no random draw. Potencies come from curve fits of mixed quality, noted in brackets.
Assay: qHTS Assay for Lipid Storage Modulators in Drosophila S3 Cells;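 on cell number change: cells counted by Cell Tracker Red CMTPX staining in the red channel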
Details: BODIPY lipid droplet fluorescence, 18-24 h; for cell number change: measured here: cell count max response, cells fed with added oleic acid
How it was run: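 Drosophila S3 cells loaded with oleic acid (400 uM, as added) and compounds at several concentrations; lipid droplets imaged by 488-nm laser-scanning cytometry, 500–530 nm intensity and object ratio to cell channel. Percent activity normalized to 20 uM Triacsin C.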

[1] = measured here: lipid fluorescence (Fed channel) AC50, cells fed with added oleic acid
[2] = measured here: cell number channel AC50, cells fed with added oleic acid

In the case of `C[N+]1(CCNC(=O)/C=N/O)CCCCC1`, the cell number change is reported as -21.7% and the AC50 [1] is reported as 7.31 µM [falling, single point].

`CC(C)C1Oc2ccccc2N(CC(=O)N(C)C2CCCCC2)C1=O` (configuration not stated) showed a cell number change of -5.13%.

For `COC(=O)c1cccc(Nc2ccc([N+](=O)[O-])cn2)c1`, the cell number change was 27.9% and the AC50 [1] was 2.06 µM [rising, partial curve].

In the case of `CCC(C(=O)NC1CCCC1)N(C(=O)c1snc(C(N)=O)c1N)c1ccc(OC)cc1` (configuration not stated), the cell number change is reported as 29.1% and the AC50 [1] is reported as 6.51 µM [rising, single point].

With `CCCCN(C(=O)C1=NN(c2cc(C)ccc2C)C(=O)CC1)c1c(N)n(CCC)c(=O)[nH]c1=O` the cell number change was 1.1% and the AC50 [1] was 0.13 µM [falling, full curve, poor fit].

With `CCCCc1c(C)c2cc(C)ccc2[nH]c1=O` the AC50 [2] was 2.06 µM [rising, partial curve] and the AC50 [1] was 0.291 µM [rising, partial curve, poor fit].

In the case of `O=C(NCc1ccc(F)cc1)C1CCC(CNc2c(N3CCCCC3)c(=O)c2=O)CC1` (configuration not stated), the cell number change is reported as 7.69% and the AC50 [1] is reported as 20.6 µM [falling, single point].

In the case of `CCCOC(=O)c1ccc(Nc2nc(C)cc(=O)[nH]2)cc1`, the cell number change is reported as -33.8% and the AC50 [2] is reported as 32.6 µM [falling, single point].

For `COc1ccc(C(NC(=O)CNC(C)=O)C(=O)Nc2ccc(C(C)C)cc2)cc1` (configuration not stated), the cell number change was -16.9% and the AC50 [1] was 0.13 µM [falling, full curve, poor fit].

With `CCOC(=O)C(C(C)=O)C(c1ccc(OCCC(C)C)cc1)C(C(C)=O)C(=O)OCC` (configuration not stated) the cell number change was -12.1% and the AC50 [1] was 1.64 µM [falling, partial curve, poor fit].

For `N=c1c(C(=O)NCCN2CCOCC2)cc2c(=O)n3ccccc3nc2n1Cc1ccc(F)cc1`, the cell number change was 3.54%.

In the case of `CCOC(=O)c1sc(NC(=O)c2cccc(S(=O)(=O)N3c4ccccc4CC3C)c2)cc1C` (configuration not stated), the AC50 [1] is reported as 23.1 µM [rising, single point].

For `CCOC(=O)c1cc(C(=O)OCC)cc(-n2cc(O)c(C(=O)OCC)n2)c1`, the cell number change was -28.7% and the AC50 [1] was 29.1 µM [falling, single point].

In the case of `CC(=O)c1ccc(N2CCN(C(=O)CCC(=O)Nc3ccc4nc(N5CCN(C)CC5)cc(C)c4c3)CC2)cc1`, the cell number change is reported as 7.14% and the AC50 [1] is reported as 10.3 µM [rising, partial curve].

With `CN(CC(=O)Nc1ccc(S(=O)(=O)N2CCCC2)cc1)Cc1ccc(Cl)cc1` the AC50 [1] was 9.2 µM [falling, partial curve, poor fit].

In the case of `O=C1CN(C(=O)COC(=O)c2cccc(Br)c2)c2ccccc2N1`, the cell number change is reported as 14% and the AC50 [1] is reported as 13 µM [rising, partial curve].

Compound `Nc1c(S(=O)(=O)c2cccs2)c2nc3ccccc3nc2n1CCc1ccccc1` has a cell number change of -3.51%.

For `COc1ccc(C)c2sc(NC(=O)c3cccc(N4C(=O)CCC4=O)c3)nc12`, the cell number change was 13%.

In the case of `COCCCN1C(=O)c2ccc(C(=O)OCC(=O)N(CCC#N)c3cc(C)cc(C)c3)cc2C1=O`, the cell number change is reported as 85% and the AC50 [2] is reported as 29.1 µM [rising, single point].

Work on `O=[N+]([O-])c1ccc(Oc2cc(NC3CCCCCCC3)c([N+](=O)[O-])cc2[N+](=O)[O-])cc1` yielded a cell number change of -10.8%.

In the case of `Cc1cc(C)cc(C(=O)Nc2cccnc2)c1`, the cell number change is reported as -3.81% and the AC50 [1] is reported as 29.1 µM [rising, single point].

With `Cc1cccc(C(=O)N(Cc2cccs2)C2CCS(=O)(=O)C2)c1` (configuration not stated) the cell number change was 8.96%.

In the case of `COc1cc(OC)cc(C(=O)NC2=NCCS2)c1`, the cell number change is reported as -10.1% and the AC50 [1] is reported as 0.0164 µM [rising, full curve, poor fit].

In the case of `CN(C)/C=C(\C#N)C(=O)Nc1ccccc1`, the cell number change is reported as -2.61% and the AC50 [1] is reported as 2.91 µM [rising, partial curve].

Work on `Cc1cccc(NC(=O)Cn2cc(C(=O)c3ccco3)c3ccccc32)c1` yielded a cell number change of -12.6%.

With `COc1ccc(N2CCN(C(=O)CCCC3=NS(=O)(=O)c4ccccc4N3)CC2)cc1` the cell number change was -0.976% and the AC50 [2] was 0.517 µM [rising, full curve].

In the case of `CC(=O)c1ccc(OCC(=O)OC(C)C(=O)NC2CCCCC2C)cc1` (configuration not stated), the AC50 [1] is reported as 29.1 µM [falling, single point].

With `CNc1ccncc1S(=O)(=O)NC` the cell number change was 7.76% and the AC50 [1] was 0.0058 µM [falling, full curve, poor fit].

With `Cc1nc2cc(NC(=O)c3ccc([N+](=O)[O-])s3)ccc2s1` the cell number change was 11.4% and the AC50 [1] was 0.58 µM [rising, single point].

`CC1CCN(CC(=O)N2CCN(c3ccccc3)CC2)CC1` showed a cell number change of -3.44%.

With `CS(=O)(=O)N(CC(N)=O)Cc1ccc(Cl)cc1` the cell number change was -45.3% and the AC50 [2] was 29.1 µM [falling, single point].

In the case of `CCOC(=O)CCNC(=O)N1CCCC(C(=O)c2ccccc2SC)C1` (configuration not stated), the cell number change is reported as -37% and the AC50 [1] is reported as 18.4 µM [falling, single point].

With `Cc1ccc(S(=O)(=O)N(C)c2ccc(OCC(=O)NCc3ccco3)cc2)cc1` the cell number change was 36.1%, the AC50 [2] was 5.17 µM [rising, full curve, poor fit] and the AC50 [1] was 5.8 µM [rising, single point].

Compound `Cc1ccc(S(=O)(=O)NC2=NCN(C3CCN(Cc4ccccc4)CC3)CN2)cc1` has a cell number change of 5.84%.

In the case of `CC(=O)c1cccc(NC(=O)COc2cc3oc(=O)c(CC(C)O)c(C)c3cc2Cl)c1` (configuration not stated), the cell number change is reported as -22% and the AC50 [1] is reported as 9.2 µM [falling, partial curve, poor fit].

In the case of `Cc1cccc(N2CCN(C(=O)N3CCCCC3)CC2)c1C`, the AC50 [2] is reported as 0.13 µM [falling, full curve, poor fit].

In the case of `CSc1ccc(Cl)c(C(=O)OCC(=O)N2CCNC2=O)c1`, the cell number change is reported as 0.973% and the AC50 [2] is reported as 0.0517 µM [falling, full curve, poor fit].

For `COc1ccccc1OC(=O)c1ccc(S(=O)(=O)N(C)C)cc1`, the cell number change was -43%, the AC50 [2] was 8.2 µM [falling, partial curve, poor fit] and the AC50 [1] was 0.092 µM [falling, full curve, poor fit].

In the case of `O=c1ccc(-c2ccccc2)nn1Cc1ccccc1F`, the cell number change is reported as 3.57% and the AC50 [1] is reported as 0.13 µM [rising, full curve, poor fit].

For `COc1ccc(COc2ccccc2C(N)=O)cc1F`, the cell number change was 15.3% and the AC50 [1] was 0.0731 µM [falling, full curve, poor fit].

With `Cc1nc(NC(=O)c2ccc3c(c2)OCO3)ccc1Br` the cell number change was 5.65%, the AC50 [2] was 4.61 µM [rising, partial curve, poor fit] and the AC50 [1] was 0.146 µM [rising, full curve, poor fit].

In the case of `Cc1c(C(=O)O)oc2ccc(S(=O)(=O)N3CCCC3)cc12`, the cell number change is reported as -11.3%.

In the case of `O=C1[C@@H]2Cc3c([nH]c4ccccc34)C(c3ccccc3)N2C(=O)CN1C1CCN(Cc2ccccc2)CC1` (some centres not stated), the cell number change is reported as -53.5%, the AC50 [2] is reported as 29.1 µM [falling, single point] and the AC50 [1] is reported as 29.1 µM [falling, single point].

For `CC(=O)NC1(c2ccccc2)CCN(Cc2nnnn2C(C)(C)C)CC1`, the cell number change was 14.4% and the AC50 [1] was 29.1 µM [falling, single point].

For `O=C(CSc1nc2c(cnn2-c2ccccc2)c(=O)[nH]1)N1CCOCC1`, the cell number change was 8.33% and the AC50 [1] was 0.092 µM [rising, full curve, poor fit].

With `Cc1cc(C)c(S(=O)(=O)N/N=C/c2ccc([N+](=O)[O-])o2)c(C)c1` the cell number change was 0.495% and the AC50 [1] was 29.1 µM [rising, single point].

With `CCCCOC(=O)C1=C(C)Nc2ncnn2C1c1ccc(OCC)c(OC)c1` (configuration not stated) the cell number change was -20.6%.

In the case of `Cc1ccc(C)c(Nc2nc(N)c3ccccc3n2)c1`, the cell number change is reported as 15%.

With `Nc1c(Cl)cc(Cl)cc1C(=O)OCC(=O)N1CCOCC1` the cell number change was 33%, the AC50 [2] was 4.11 µM [rising, full curve, poor fit] and the AC50 [1] was 6.51 µM [rising, partial curve, poor fit].

In the case of `CC(C)Nc1nc(NC(C)C)nc(C(N)=O)n1`, the cell number change is reported as 5.5% and the AC50 [1] is reported as 29.1 µM [falling, partial curve, poor fit].

In the case of `O=C(CNc1ccc(F)cc1)c1ccccc1`, the cell number change is reported as 0.551% and the AC50 [1] is reported as 0.366 µM [falling, partial curve, poor fit].

With `CCn1nnnc1SCC(=O)c1ccc(C)cc1C` the cell number change was -11.8% and the AC50 [1] was 6.51 µM [falling, single point].

With `CC(C)c1ccc2nc(N)sc2c1` the cell number change was -23.1% and the AC50 [2] was 0.291 µM [falling, full curve, poor fit].

Compound `COC(=O)c1c(NC(=O)CN2CCN(c3ccccc3OC)CC2)c2c(C)cccc2n1C` has a cell number change of 12.2%.

`CC1=C(C)CC(C(=O)NC2CCCC2)C(C(=O)O)C1` (configuration not stated) gave a cell number change of -1.1%.

For `C/C(N)=C(/C#N)C(=O)COC(=O)c1ccc(OCC2CCCO2)cc1` (configuration not stated), the cell number change was 28.2%.

For `N#CC1=C(N)C2=CCCC[C@H]2[C@H](c2ccc(Br)cc2)C1(C#N)C#N`, the cell number change was -6.79% and the AC50 [1] was 29.1 µM [falling, single point].

For `Cc1cc(C)n2nc(SCC(=O)N3CCOCC3)nc2n1`, the cell number change was 19.1% and the AC50 [1] was 5.8 µM [falling, single point].

With `O=C(COC(=O)CCCOc1ccc(Cl)cc1Cl)NCc1ccccc1` the AC50 [2] was 4.11 µM [rising, single point].

For `CCCCC(=O)N/N=C(\C)CC(=O)Nc1cc(Cl)ccc1OC`, the cell number change was -38.3% and the AC50 [2] was 29.1 µM [falling, single point].

In the case of `COc1ccc(-c2cc(C#N)nc(N3CCNCC3)n2)cc1`, the AC50 [2] is reported as 0.731 µM [rising, single point].

Compound `Cc1cc(C(=O)Nc2ncn[nH]2)ccc1[N+](=O)[O-]` has a cell number change of 1.85%.

For `Cc1cnc(NC(=O)[C@H](C)N2C(=O)C3CCCCC3C2=O)s1` (some centres not stated), the cell number change was 15%, the AC50 [2] was 0.517 µM [falling, partial curve] and the AC50 [1] was 6.51 µM [falling, single point].

In the case of `O=C(COc1ccc(Br)cc1)NC(=S)Nc1ccccc1N1CCOCC1`, the cell number change is reported as -24.9% and the AC50 [1] is reported as 29.1 µM [rising, single point].

Source: PubChem BioAssay AID2685 (National Center for Advancing Translational Sciences (NCATS), 2010)
